In the supplement of paper PMC10849652:
The list shows a part of the results.

By UniProt entry, the sequences of proteins in these tests, tags left out. Where a name states a change or a piece, a line headed by the entry shows the natural chain unless it says otherwise.
UniProt Q9Y5L0: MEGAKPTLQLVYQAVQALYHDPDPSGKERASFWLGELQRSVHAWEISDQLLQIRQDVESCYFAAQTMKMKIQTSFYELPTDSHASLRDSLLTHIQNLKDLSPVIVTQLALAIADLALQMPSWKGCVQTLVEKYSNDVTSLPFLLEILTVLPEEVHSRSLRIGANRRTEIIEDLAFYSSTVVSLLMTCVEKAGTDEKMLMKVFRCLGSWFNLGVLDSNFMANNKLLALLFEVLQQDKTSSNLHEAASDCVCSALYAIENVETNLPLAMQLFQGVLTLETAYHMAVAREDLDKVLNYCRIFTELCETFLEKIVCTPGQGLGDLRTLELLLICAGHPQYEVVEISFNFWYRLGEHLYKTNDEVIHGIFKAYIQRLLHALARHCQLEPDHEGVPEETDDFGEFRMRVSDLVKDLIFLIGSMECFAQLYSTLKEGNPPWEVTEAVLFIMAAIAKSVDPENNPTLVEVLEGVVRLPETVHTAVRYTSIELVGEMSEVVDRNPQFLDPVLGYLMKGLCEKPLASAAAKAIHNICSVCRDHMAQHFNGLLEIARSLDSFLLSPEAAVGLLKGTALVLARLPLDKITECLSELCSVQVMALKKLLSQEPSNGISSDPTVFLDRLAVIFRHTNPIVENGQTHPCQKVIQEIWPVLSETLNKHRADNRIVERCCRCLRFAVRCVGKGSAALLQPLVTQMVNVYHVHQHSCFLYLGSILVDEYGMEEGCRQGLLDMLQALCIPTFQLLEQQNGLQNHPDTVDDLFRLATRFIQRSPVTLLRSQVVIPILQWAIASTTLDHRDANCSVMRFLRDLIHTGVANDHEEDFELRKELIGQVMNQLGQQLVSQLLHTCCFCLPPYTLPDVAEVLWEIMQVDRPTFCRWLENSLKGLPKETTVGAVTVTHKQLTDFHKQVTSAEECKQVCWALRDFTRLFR
UniProt O43715: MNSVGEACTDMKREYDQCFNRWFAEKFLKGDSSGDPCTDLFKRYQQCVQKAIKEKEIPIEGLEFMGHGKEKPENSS
UniProt Q15642: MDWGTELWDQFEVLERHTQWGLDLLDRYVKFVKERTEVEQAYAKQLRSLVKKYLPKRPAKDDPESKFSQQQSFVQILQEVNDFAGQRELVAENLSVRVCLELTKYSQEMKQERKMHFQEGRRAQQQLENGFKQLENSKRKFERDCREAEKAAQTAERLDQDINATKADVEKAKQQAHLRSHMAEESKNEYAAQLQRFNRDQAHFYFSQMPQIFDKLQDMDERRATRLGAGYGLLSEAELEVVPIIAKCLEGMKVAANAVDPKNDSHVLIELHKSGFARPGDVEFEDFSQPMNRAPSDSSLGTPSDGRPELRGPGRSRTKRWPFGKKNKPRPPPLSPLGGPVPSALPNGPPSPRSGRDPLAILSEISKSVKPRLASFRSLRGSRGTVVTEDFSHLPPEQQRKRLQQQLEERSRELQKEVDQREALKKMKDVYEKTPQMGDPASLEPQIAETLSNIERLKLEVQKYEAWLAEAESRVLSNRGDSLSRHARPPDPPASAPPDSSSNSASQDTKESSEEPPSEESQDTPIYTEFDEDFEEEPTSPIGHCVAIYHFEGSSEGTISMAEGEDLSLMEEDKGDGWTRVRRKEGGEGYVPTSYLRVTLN
UniProt Q8NCE0: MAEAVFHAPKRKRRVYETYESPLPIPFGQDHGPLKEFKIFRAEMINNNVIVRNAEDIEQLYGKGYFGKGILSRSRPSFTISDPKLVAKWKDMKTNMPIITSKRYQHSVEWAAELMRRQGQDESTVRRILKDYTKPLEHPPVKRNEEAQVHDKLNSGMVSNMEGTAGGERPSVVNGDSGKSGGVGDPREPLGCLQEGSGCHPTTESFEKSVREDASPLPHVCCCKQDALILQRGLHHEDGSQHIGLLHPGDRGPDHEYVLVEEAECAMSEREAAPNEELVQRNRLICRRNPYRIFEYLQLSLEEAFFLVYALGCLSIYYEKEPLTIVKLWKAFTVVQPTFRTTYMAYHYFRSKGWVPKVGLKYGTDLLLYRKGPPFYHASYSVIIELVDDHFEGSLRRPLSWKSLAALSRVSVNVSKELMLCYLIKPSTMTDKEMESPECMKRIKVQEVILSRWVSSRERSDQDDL
UniProt Q7Z2T5: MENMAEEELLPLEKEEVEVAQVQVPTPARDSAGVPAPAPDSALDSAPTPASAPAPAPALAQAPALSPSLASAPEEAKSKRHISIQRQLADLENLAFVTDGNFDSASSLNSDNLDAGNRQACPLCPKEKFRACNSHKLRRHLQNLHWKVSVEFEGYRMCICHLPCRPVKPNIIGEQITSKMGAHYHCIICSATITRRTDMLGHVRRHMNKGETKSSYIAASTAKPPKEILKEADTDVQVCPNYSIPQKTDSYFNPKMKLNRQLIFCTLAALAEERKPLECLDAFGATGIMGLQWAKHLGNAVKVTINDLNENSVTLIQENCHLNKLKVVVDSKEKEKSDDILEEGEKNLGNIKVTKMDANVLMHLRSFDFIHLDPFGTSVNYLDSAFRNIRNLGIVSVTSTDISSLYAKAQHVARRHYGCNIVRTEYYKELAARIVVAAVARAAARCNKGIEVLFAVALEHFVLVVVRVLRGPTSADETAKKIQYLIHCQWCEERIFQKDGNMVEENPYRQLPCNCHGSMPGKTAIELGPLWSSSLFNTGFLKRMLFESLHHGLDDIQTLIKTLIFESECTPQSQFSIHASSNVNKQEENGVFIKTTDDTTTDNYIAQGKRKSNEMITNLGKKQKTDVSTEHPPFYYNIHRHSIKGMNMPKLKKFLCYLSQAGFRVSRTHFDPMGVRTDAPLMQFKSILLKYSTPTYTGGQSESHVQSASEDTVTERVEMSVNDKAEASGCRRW
UniProt P60174, whole entry, looked up: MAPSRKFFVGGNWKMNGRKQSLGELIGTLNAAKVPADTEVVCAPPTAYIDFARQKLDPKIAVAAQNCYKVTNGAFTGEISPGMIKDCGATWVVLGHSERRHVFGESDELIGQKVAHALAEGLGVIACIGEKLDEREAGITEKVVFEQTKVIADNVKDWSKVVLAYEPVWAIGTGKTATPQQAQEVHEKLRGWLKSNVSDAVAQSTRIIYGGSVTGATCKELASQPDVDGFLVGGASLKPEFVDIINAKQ
UniProt Q9NXH8: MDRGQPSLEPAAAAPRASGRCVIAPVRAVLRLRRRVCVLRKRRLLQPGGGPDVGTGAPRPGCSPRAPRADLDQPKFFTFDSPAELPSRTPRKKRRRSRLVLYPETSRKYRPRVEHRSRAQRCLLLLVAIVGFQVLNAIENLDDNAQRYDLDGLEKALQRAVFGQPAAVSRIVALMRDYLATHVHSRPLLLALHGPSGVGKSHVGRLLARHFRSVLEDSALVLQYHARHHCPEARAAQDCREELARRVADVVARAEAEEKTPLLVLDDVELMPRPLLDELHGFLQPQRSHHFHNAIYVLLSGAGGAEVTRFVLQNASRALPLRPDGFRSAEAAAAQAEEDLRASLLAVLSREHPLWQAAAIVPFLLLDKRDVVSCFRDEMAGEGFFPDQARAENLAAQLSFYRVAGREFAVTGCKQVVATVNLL
UniProt Q9C0C2: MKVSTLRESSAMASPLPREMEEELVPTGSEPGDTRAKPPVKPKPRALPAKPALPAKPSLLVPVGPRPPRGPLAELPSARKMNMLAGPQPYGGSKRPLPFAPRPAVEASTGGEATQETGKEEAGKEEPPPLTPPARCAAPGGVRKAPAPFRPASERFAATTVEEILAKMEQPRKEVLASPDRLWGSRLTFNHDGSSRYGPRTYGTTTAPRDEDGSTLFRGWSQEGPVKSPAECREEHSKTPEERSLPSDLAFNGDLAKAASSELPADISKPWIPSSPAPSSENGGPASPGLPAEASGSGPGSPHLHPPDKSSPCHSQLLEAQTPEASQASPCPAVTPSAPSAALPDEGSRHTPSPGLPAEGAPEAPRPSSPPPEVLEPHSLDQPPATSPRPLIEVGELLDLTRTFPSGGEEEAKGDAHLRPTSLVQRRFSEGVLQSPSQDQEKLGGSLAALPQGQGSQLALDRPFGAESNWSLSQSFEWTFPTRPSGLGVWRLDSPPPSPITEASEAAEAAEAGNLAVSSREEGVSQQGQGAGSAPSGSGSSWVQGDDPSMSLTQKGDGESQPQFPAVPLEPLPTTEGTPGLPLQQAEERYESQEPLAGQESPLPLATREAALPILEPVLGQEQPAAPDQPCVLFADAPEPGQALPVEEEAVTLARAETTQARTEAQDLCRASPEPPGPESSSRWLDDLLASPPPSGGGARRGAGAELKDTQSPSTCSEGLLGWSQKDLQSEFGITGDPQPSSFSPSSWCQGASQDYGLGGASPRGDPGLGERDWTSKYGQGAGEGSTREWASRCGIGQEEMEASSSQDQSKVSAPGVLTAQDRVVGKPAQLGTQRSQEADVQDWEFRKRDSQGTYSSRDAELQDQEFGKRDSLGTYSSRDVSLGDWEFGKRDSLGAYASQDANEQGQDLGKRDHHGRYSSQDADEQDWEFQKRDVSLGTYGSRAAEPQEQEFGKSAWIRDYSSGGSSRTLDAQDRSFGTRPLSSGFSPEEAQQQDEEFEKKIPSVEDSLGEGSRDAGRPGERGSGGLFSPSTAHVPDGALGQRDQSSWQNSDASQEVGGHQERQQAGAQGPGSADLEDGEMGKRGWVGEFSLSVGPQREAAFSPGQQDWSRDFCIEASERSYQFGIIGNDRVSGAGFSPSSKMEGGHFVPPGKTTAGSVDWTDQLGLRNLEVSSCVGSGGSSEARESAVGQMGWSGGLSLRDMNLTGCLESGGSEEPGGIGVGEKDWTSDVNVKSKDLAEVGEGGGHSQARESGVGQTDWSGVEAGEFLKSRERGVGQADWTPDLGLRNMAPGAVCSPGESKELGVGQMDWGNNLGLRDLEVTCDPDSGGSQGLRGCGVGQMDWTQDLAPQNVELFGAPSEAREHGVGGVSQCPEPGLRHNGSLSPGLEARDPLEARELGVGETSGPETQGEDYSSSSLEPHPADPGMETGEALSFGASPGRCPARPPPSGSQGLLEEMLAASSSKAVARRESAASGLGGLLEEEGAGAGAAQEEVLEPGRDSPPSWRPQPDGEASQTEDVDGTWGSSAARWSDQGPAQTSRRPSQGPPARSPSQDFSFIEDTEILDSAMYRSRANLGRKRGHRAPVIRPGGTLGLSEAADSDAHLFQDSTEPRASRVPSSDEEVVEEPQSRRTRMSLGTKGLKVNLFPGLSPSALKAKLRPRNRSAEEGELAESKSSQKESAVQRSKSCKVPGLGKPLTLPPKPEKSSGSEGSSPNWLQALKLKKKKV
UniProt Q8N4H5: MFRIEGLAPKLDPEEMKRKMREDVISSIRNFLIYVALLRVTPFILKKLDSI
UniProt O60784, whole entry, looked up: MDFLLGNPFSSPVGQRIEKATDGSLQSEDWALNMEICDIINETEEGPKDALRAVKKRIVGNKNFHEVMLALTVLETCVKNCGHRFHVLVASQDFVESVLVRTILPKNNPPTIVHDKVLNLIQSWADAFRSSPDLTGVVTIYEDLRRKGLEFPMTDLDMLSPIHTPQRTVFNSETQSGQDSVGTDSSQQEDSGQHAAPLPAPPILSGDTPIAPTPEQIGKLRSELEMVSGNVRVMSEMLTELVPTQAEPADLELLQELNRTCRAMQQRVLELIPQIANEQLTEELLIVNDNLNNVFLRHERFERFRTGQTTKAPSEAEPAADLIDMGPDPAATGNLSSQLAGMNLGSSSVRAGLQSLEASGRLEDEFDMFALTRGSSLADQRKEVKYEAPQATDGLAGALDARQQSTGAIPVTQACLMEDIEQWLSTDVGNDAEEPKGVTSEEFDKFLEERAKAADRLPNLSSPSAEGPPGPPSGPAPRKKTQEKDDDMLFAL
UniProt Q9UL33, whole entry, looked up: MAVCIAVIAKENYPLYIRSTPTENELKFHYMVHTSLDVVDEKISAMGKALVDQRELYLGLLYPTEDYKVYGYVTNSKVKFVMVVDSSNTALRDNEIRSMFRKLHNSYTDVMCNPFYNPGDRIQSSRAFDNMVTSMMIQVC
UniProt O43399: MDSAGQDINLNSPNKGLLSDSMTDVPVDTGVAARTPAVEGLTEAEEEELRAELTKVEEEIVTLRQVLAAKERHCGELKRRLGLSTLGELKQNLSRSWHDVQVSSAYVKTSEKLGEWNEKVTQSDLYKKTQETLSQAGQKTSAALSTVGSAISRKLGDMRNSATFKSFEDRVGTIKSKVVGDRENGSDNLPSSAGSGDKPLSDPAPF
UniProt O75674: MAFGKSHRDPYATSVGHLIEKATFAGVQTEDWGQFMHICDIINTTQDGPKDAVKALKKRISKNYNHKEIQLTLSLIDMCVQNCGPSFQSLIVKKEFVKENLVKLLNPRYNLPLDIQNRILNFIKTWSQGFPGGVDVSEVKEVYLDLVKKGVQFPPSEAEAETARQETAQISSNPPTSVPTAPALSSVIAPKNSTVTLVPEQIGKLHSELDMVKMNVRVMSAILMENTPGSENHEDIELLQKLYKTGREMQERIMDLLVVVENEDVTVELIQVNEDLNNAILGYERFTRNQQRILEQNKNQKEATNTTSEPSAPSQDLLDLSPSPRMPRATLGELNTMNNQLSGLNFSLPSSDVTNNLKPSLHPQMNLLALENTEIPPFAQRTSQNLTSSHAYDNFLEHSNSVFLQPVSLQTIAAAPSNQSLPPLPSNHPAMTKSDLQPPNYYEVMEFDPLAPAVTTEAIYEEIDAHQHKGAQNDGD

Each target was assayed with O=C1NC(=O)C(c2cnc3ccccn23)=C1c1cn2c3c(cc(F)cc13)CN(C(=O)N1CCCCC1)CC2 (assay: log2 fold change, soluble protein after heating vs DMSO (PISA); higher = thermal stabilisation; K562 cells, 10 uM, 30 min; active = over 0.2 and 3.5 SD of the protein, either way, in both replicates (recomputed)).
Method in brief: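 Aliquots of K562 cells (2×10^6 cells/mL) treated with 10 μM compound for 30 min were heated for 3 min over 48°C-58°C. After pooling and extraction in PBS with 0.5% NP-40 at 4°C, soluble protein from a 21,000xg, 90 min spin was quantified by TMTpro 16plex LC-MS/MS with channel sums equalised. Thermal stability is expressed against control samples, from duplicates, as a log2 fold change.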

log2 fold change, inactive:
TOX4 (UniProt O94842) 0.287
TPD52L1 (UniProt Q16890) -0.001
TNPO3 (UniProt Q9Y5L0) -0.06
TPM1 (UniProt H7BYY1) -0.051
TOLLIP (UniProt Q9H0E2) -0.083
TRA2B (UniProt P62995) 0.268
TP53BP1 isoform 2 (UniProt Q12888) -0.035
TRIAP1 (UniProt O43715) -0.034
TRIP10 (UniProt Q15642) -0.207
TPM4 isoform 2 (UniProt P67936) -0.013
TSEN2 (UniProt Q8NCE0) -0.015
TNFRSF8 (UniProt P28908) -0.053
TPM2 (UniProt P07951) 0.162
TPX2 (UniProt Q9ULW0) -0.027
TPST2 (UniProt O60704) -0.013
TOR1A (UniProt O14656) 0.004
TRMT13 (UniProt Q9NUP7) -0.141
TRMT1L (UniProt Q7Z2T5) 0.229
TPMT (UniProt P51580) -0.039
TPI1 (UniProt P60174) -0.046
TOR4A (UniProt Q9NXH8) 0.075
TNKS1BP1 (UniProt Q9C0C2) 0.004
TRAPPC11 (UniProt Q7Z392) -0.036
TRIM32 (UniProt Q13049) -0.023
TOMM22 (UniProt Q9NS69) -0.055
TOMM5 isoform 2 (UniProt Q8N4H5) -0.158
TOM1 isoform 2 (UniProt O60784) -0.026
TRAPPC2L (UniProt Q9UL33) -0.047
TRIP10 isoform 2 (UniProt Q15642) -0.052
TPD52L2 isoform 7 (UniProt O43399) -0.068
TPM4, A0A2R8Y5V9 -0.028
TOM1L1 (UniProt O75674) 0.008

2 neighbouring records already listed, for reference:
log2 fold change, inactive:
TRIP10 (UniProt Q15642) -0.207
TPM4 isoform 2 (UniProt P67936) -0.013
